Assay results published in US10092584B2 (Achillion Pharmaceuticals, Inc., priority 2015, dated 2018).

Protein sequences, listed by entry. Tags and fused reporters are not part of them. Residues count along the entry.
UniProt P00746, 26-253 limits assumed: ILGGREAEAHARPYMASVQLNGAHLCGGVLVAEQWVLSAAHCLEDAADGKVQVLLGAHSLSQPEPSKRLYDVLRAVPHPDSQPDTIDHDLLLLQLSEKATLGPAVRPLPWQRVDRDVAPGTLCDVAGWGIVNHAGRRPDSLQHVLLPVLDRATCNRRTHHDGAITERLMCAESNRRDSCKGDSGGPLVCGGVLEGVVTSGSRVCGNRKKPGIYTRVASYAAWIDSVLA

Target: Human Factor D (Homo sapiens, UniProt P00746)
Experiment: Human Factor D assay (Example 8)
Assay type: biochemical
Conditions: Table 1; Human Factor D 80 nM, substrate Z-L-Lys-SBzl

SMILES: CC(=O)c1nn(CC(=O)N2C[C@H](F)C[C@H]2C(=O)Nc2cccc(Br)n2)c2c1ccn1cc(-c3cccc(Cl)c3)nc21
- IC50: < 1000 nM

The match of structure and compound is tentative.
